# Test results from US20250177448A1, “NEW USE OF PEG-PHOSPHOLIPID MOLECULES” (ICOAT MEDICAL AB, priority 2022, published 2025).
# No dose or concentration is given here for some results.
# Tested on: CCRF-CEM cells
# Test: Detachment (retention time) of FAM-PEG-phospholipid from CCRF-CEM cells in vitro
# Assay type: cell-based
substance,measurement,value
"N-(methylpolyoxyethylene oxycarbonyl)-1,2-dipalmitoyl-sn-glycero-3-phosphoethanolamine [PEG-phospholipid]",time after which PEG-phospholipid detached fully in vitro,48 h
